From PubChem BioAssay AID1347423 (Functional Genomics Laboratory (NCATS/FGL), 2020)
In all, about 52,000 sequences went through this assay and about 210 (0.4%) were called active.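 How the source made its calls: active means gene whose silencing raises cell survival under the drug, median off-target-corrected z-score across its silencing RNAs 2 or more; inactive means the rest.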 The list shows a part of the results.

assay: Resistance to Poly (ADP-Ribose) Polymerase inhibitor: Gene Identification via Genome-wide siRNA Screen; conditions: mouse BRCA2 R2336H ES cells, olaparib, CellTiter-Glo viability; stronger effect = higher value
Outline: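 Mouse BRCA2 R2336H ES cells were reverse-transfected with siRNA (20 nM final), treated at 48 h with 500 nM olaparib, and read by CellTiter-Glo after 72 h. Scores: MAD-based z per siRNA, median per gene, seed off-target correction.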

Sequence | z-score
GGAUAUUCCGGAAGAUAUUTT against Mrpl13 | inactive: -0.0797
GGCCUUAGAAUUUGAUUCUTT against Slc30a8 | inactive: 1.95
GGCUUUCCUAUCAUGGUUUTT against Anp32e | inactive: -0.278
CGGCAUCCUAGACACCUUUTT against Rax | inactive: 1.14
GACUCUCACCUCCUUGAAUTT against Krtap16-8 | inactive: -0.327
GGUUAAACUGUGAAUCCAUTT against A930037J23Rik | inactive: 1.03
GCUUGUCUCACACAGCUCUTT against Olfr401 | inactive: -0.379
GGUCUCCUGUACAGAAAAUTT against 1300010M03Rik | inactive: -0.145
CGGUUUAACAGCAAGGGUATT against Sec61a1 | inactive: 0.482
CGACCAAGUCAUUGUUAAGTT against Igf2bp1 | inactive: -0.706
GGAGGCCGUAAUAUCUCCUTT against Krt1-13 | inactive: 2.25
GCCAAGUUAGAAGUUAGAATT against 2900055D03Rik | inactive: 0.206
GGACAGUUAAUGUUUCUGUTT against C130052I12Rik | inactive: 0.696
GGCCUAGAUAGAAUUCGUGTT against 6330403K07Rik | inactive: 0.974
GGAUGAAGAGAAAGUUCUATT against Mak | inactive: 2.99
GGUUUCCCUAGGAAAAAACTT against Klk9 | inactive: 0.524
GCUCUUCAGUUUAUAGUGUTT against Taar3 | inactive: 0.116
GGAUGACUGUAAGUUACGGTT against Mast2 | inactive: 0.107
GGGUCAUCAACUCUUACAATT against Gga3 | inactive: 0.871
GGUGAUGAAGGAUUUGAUUTT against Cbll1 | inactive: 0.185
GGCGAGGAUGGUAUUGAGATT against Sema3f | inactive: 0.343
GGUGAUUUAGUUGUGUAAATT against Calcr | inactive: -0.00709
GGGCUCUGAGAAAAGACAATT against 4921530L21Rik | inactive: -1.61
GGGUGAGGGCAUUAGAGAUTT against E2f1 | inactive: 0.927
GGAAGAAAUACUACAGCCATT against Ptpn12 | inactive: -0.919
GCUGUGCAUAUGGUAUAUUTT against 2810468K05Rik | inactive: -0.0681

Sequence | z-score
GGCCAAAUAUUGAUCUUAATT against Rgs4 | inactive: -1.04
GCGAGCUAAUGUCACAUUCTT against Il17r | inactive: -1.64
GGAAAUCCACAGAUUAAGATT against Stch | inactive: 1.12
GGAAAACAUUAAGAAGGGCTT against Ctgf | inactive: 1.28
GGUGUGUGGUGUUAAAAAATT against Mybph | inactive: 1.54
GGGCCUCCAAUUUGUGGCUTT against Cd1d1 | inactive: 0.57
GGCCAGACACUACAGGUAATT against 2410004H02Rik | inactive: -0.68
GCCCUACCUUGAAUCCCAUTT against Olfr532 | inactive: -1.48
GCCAGUCAUUCAGUAAAGUTT against C130067A03Rik | inactive: -1.71
GGGAGAAGAUGUCCAUCAATT against 1700001L23Rik | inactive: -0.649
CGAGAUCUGACAUAGUGUCTT against Pdia6 | inactive: -0.0142
GGGCUGUUCCAUUUCUUUATT against Atcay | inactive: 0.257
GCAGCGGCUUUACAAGGAUTT against Tceb2 | inactive: -2.04
GGACAAAAGCAGCUUGAGUTT against 1810063B05Rik | inactive: -0.476
GGGUAGAAUGUGUGUGUCUTT against 1300007F04Rik | inactive: -1.14
GGAAUAUGACUACAUGAAATT against Calu | inactive: 0.98
GUUCUCACUCAAGGUCACCTT against BC035954 | inactive: 2.89
GGAUACAAAUGAAAGCUUATT against Zfp354b | inactive: 0.123
GGGAUGGACAAGUUGUACUTT against Renbp | inactive: -0.657
CGUGGGCUCUCUAGAUGAATT against S100a13 | inactive: 0.869
GGAUGACGACGAUUACAACTT against Nkx6-1 | inactive: -0.525
CCAGCUUUGGGAAAUACCGTT against Sertad1 | inactive: -0.411
GGAAAUGCAGAAGUUCUUUTT against Mmp7 | inactive: 0.139
CCUAGAAAAGUCAUUGUCATT against 3010003L21Rik | inactive: 1.2
CCUUCGAUGAAGUAUACAATT against Ipo4 | inactive: -1.13
CCCUUCUGUAAACACCACATT against 1700055N04Rik | inactive: -1.5

Four entries picked at random from the list so far, as already listed:
Sequence | z-score
GGACAAAAGCAGCUUGAGUTT against 1810063B05Rik | inactive: -0.476
GGAAAUGCAGAAGUUCUUUTT against Mmp7 | inactive: 0.139
GGAUGACGACGAUUACAACTT against Nkx6-1 | inactive: -0.525
GGAAAUCCACAGAUUAAGATT against Stch | inactive: 1.12

Later entries:

Sequence | z-score
GGCGGCACAAAUUGUUUUUTT against A630002K24 | inactive: -1.38
GCGAAACACAUAAUGAGUCTT against Brrn1 | inactive: 0.511
CCUUGUUCCCGAAAUACCGTT against Hrb2 | inactive: 0.916
GGCCUAUUCACAGGUGUGATT against C330046G03Rik | inactive: -2.15
GGAGCUGGAAGAGUGGUAUTT against Clta | inactive: 0.775
AGACUGGGUUGUGAAGAUATT against 4930563M21Rik | inactive: -0.598
GAUGUUCUUCUUACACUCCTT against Olfr559 | inactive: -0.553
GCAUUUCCUAGUGUCUAUUTT against A930027H06Rik | inactive: -0.919
GGACUCUUUGACCACAAGCTT against 2700085M18Rik | inactive: -0.985
GGCAAAGUUUGACCAGUGUTT against Ndufa8 | inactive: -0.829
GGUGUAAUUCUCAUUGUGCTT against Slc10a2 | inactive: -0.177
GGUACUCAACAUGAUGCCCTT against 1110001K21Rik | inactive: 1.04
GAGUCUGGUUAUGUGGCAUTT against Scgb1a1 | inactive: 0.163
GCAUCAUUAAAAAGGAGAGTT against Shmt1 | inactive: -2.11
GGUUUUUGAAUUCCAGUUGTT against 9030611N15Rik | inactive: 0.177
GGAGUCAACACACAUCAAGTT against Zfp13 | inactive: 0.5
GGAUUCCAAACCAGAAAACTT against 4930455F23Rik | inactive: -0.0775
GCAAGGUGAUUUGUGUUCGTT against 6430556C10Rik | inactive: -0.968
GGCAACAUUCCUUAUUCACTT against Sh3bgrl3 | inactive: 0.287
GCCUUGCCCUUGUGUUUCUTT against 1110002E23Rik | inactive: 1.45
GCUAGUAUCAUGGAACCUCTT against 4933408F15 | inactive: -0.0262
CGGACUUUCCCGGUAACUATT against Rpo1-1 | inactive: -2.25
GGAAGACUCUUGGAUUCUCTT against Evi5 | inactive: 0.0997
GGGUUUUUAGCUAAUACUATT against Pdk1 | inactive: -0.333
GGGCUGUGAUCUUAUUUCATT against Tpk1 | inactive: 0.0513
GGAUUGAUAAUUUCCUGAATT against Nol6 | inactive: -0.924

Sequence | z-score
GCACGGUCUUAUUGAGAGGTT against 2210018M03Rik | inactive: 0.0257
CCGAGACAUAUACAAAGGATT against Klkb1 | inactive: -1.1
GCAUUCAGACCAUGACACUTT against LOC209387 | inactive: -0.793
GGUCAUCAGAAUGUGAAAATT against Zfp354a | inactive: -0.144
GGAACUAUCACGUGUUCUATT against Myo7a | inactive: 2.01
GGCGGAAAUCUUGAGCAAATT against Slc28a2 | inactive: -0.0691
CCGAGGCAUCUUAGCUUAATT against Nxt1 | inactive: -0.221
GGGCUACAAGAAAAAGUAUTT against Krt2-18 | inactive: -1.86
CCUCUAGCCAUCUACUUUGTT against Rad9b | inactive: -2.68
GCCCACCUGUGCAAUCAUATT against Arl4 | inactive: -0.734
CCUCCAUUGCAUGUCCCAATT against ADAM26b | inactive: -2.61
CCAUAUCAUUGAUAUAGCUTT against Thoc3 | inactive: 1.17
GCUCCAGUUGCCUCUUUUUTT against Olfr900 | inactive: 0.683
CCGCUGUGAUACCAUAUACTT against G630049C14Rik | inactive: 1.07
CGCAGAAGUGCGUGAUUUCTT against Dfna5h | inactive: 1.49
GUCGCCGUGUAUGUAUCAUTT against Olfr727 | inactive: 1
GGAGGGUCCUUUUUCACAUTT against Asph | inactive: -0.44
GGUUAAAGGAAAAUGACACTT against Cdh6 | inactive: 1.79
GGAUUUCUUUGGUGAGACUTT against Gstk1 | inactive: -1.54
GGUGGAGGAUUUUUCAGAUTT against Hs6st2 | inactive: -0.83
GCAGUGGGAGUAUACAUCUTT against Olfr847 | inactive: 1.67
GGGAAAUUUAAAAACCUGGTT against Hoxa2 | inactive: -0.955
GGAAAUUAACUUCACUGCUTT against Olfr669 | inactive: -0.269
GCUAUUGGGUAGAUUGAUATT against Baat | inactive: 0.164
GCGGCCGACUUUGUGAAAGTT against 1810003N24Rik | inactive: -1.16
